No constants are given. Whether binding was seen depends on the method and setting. Binding seen in cells or lysates may run through a third protein. A yes stands for co-enrichment or nearness to the bait. Other partners may have been found.

In this assay the target is VgrG3 fused to a hemagglutinin epitope at its C terminus (VgrG3-HA) (Chromobacterium violaceum ATCC 12472). The experiment in a line: affinity purification with mass spectrometry.

B1: CV_2846 (protein, UniProt Q7NU57 1-66)
chain: MIGEVNFYGVYFPSLLVMMVIAFAASSLLRRALARLGLYRAVWHRSLFNFALYLIVLGATIALFHR
Regarding B1, the binding entry was “binds”.

For the origin of these results see article PMC9430734.
